# Library screen at single concentrations

T. brucei: 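Whole-parasite assay of Trypanosoma brucei over 72 hours; the read-out is not stated. Tested at 30 µM. Higher reads as stronger inhibition (inferred: compounds with an IC50 in retests scored well above the rest). Values scatter widely below zero; nearly all retest evidence comes from the higher of the two concentrations used. About 64,000 compounds were tested under these conditions; 1.5% (about 940) showed 50% or more at least once.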
Toxoplasma: 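Assay of Toxoplasma gondii numbers, read through their beta-galactosidase reporter with a colour substrate. Concentration: 10 µM. The record gives no direction; the compounds picked for IC50 retests had high values, so higher reads as fewer parasites. Size under these conditions: about 67,000 compounds, about 260 of them at 50% or above in at least one test.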

Results are given as percent effect.
How 0% and 100% were set is not recorded. Most values in the screen are low, and negative values occur.
This is an unselected part of the compounds tested.
A dash means the value is not listed here; it may have been measured.

compound: CCc1ccc(C(=O)NC2CCCN(c3ccn(C)n3)C2=O)o1 (configuration not stated)
T. brucei: -50.77
Toxoplasma: -0.8102

compound: Cc1ccc(N2CCC3(CC2)CCN(C2CCOCC2)CC3)nn1.O=C(O)C(F)(F)F
Toxoplasma: -16.3

compound: O=C1CCCN1CCc1nc(-c2ccsc2)no1
T. brucei: 6.767
Toxoplasma: -1.312

compound: COCC(=O)N1CCc2nc(C(=O)Nc3cccnc3)sc2CC1
T. brucei: -18.81
Toxoplasma: 9.267

compound: CCN1CCOC(CNCc2ccc(C)s2)C1 (configuration not stated)
T. brucei: -43.08
Toxoplasma: 11.33

compound: CC(C)Nc1nc2c(cc1C(=O)NCC1CC1)CCN(C)CC2.O=C(O)C(F)(F)F.O=C(O)C(F)(F)F
T. brucei: -65.89
Toxoplasma: 7.414

compound: Cl.Cl.O=C1NC2(CCNCC2)CC1c1ccncc1 (configuration not stated)
T. brucei: -17.39
Toxoplasma: 7.083

compound: CC(C)N(C)Cc1n[nH]c2c1CCN(C(=O)c1ccc[nH]1)C2.O=C(O)C(F)(F)F
T. brucei: -27.97
Toxoplasma: -14.27

compound: O=C1C=CC=N/C1=C(/O)NCCNS(=O)(=O)N1CCCCCC1
T. brucei: -6.245
Toxoplasma: 0.1873

compound: CC(C)c1nccn1C1CCCN(C(=O)CN(C)C2CC2)C1 (configuration not stated)
T. brucei: -2.243
Toxoplasma: 24.24

compound: CC(C)NC(=O)Nc1ncc(-c2cccnc2)s1
T. brucei: 25.11
Toxoplasma: -4.789

compound: COCc1nnn2c1CN(C(=O)c1c[nH]cn1)CCC2
Toxoplasma: -16.7

compound: CC(C)(C)c1nc(CN2CCCC2c2nnc3ccccn23)no1 (configuration not stated)
T. brucei: -38.53
Toxoplasma: 9.612

compound: O=C(O)c1ccn(-c2ccc(NC(=O)c3ccccc3Cl)cc2)n1
T. brucei: -11.09
Toxoplasma: -15.23

compound: CN(C)[C@@H]1CO[C@H](CNC(=O)Nc2ccccc2)[C@H]1O
T. brucei: 2.238
Toxoplasma: 0.7996

compound: Cc1ccc(-c2nc(CN3CCC(N4CCNC4=O)CC3)co2)cc1
T. brucei: -11.58
Toxoplasma: -35.7

compound: Cn1ncc2c1C(COCC1CC1)CN(Cc1ccco1)C2 (configuration not stated)
T. brucei: -6.199
Toxoplasma: -31.61

compound: Cc1cccc(-c2noc(CN3CCC(c4ccn[nH]4)CC3)n2)c1
T. brucei: -36.1
Toxoplasma: -21.05

compound: Cc1nn(C)c(N(C)C)c1CNC(C)COc1cccc(F)c1 (configuration not stated)
T. brucei: -10.47
Toxoplasma: -0.6674

compound: O=C(NCCCO)Nc1cccc(C[S+]([O-])Cc2ccccc2)c1 (configuration not stated)
T. brucei: -18.54
Toxoplasma: -0.6882

compound: O=C(O)C(F)(F)F.O=C(O)C(F)(F)F.[H][C@@]12OCCN(Cc3c(C)noc3C)[C@@]1([H])CC[C@H]2Oc1ncccc1F
T. brucei: -9.669
Toxoplasma: 7.383

compound: CC(=O)N1N=C(COc2ccc3c(c2)OCO3)OC1c1ccc(C)cc1 (configuration not stated)
T. brucei: -39.05
Toxoplasma: 6.076

compound: CSc1ccc(CN(C(=O)c2cc(=O)[nH]c(=O)[nH]2)C2CC2)cc1
T. brucei: -18.93
Toxoplasma: -1.393

compound: O=C(NCc1ccc(Cl)cc1)C1CCCN(c2ccc3nncn3n2)C1 (configuration not stated)
T. brucei: -3.636
Toxoplasma: 23.41

compound: Cc1nc(C)n(CC2CCCN2Cc2nc(C3CC3)no2)n1 (configuration not stated)
T. brucei: 4.468
Toxoplasma: 17.08

compound: COc1nc2cc(C)ccc2cc1CN(C)Cc1n[nH]c2c1CCCC2
T. brucei: 21.81
Toxoplasma: -15.1

compound: O=C(NCC(F)(F)F)C1CCC(=O)N(C2CCCC2)C1 (configuration not stated)
T. brucei: -0.2454
Toxoplasma: -3.06

compound: O=C(CCc1cc(F)ccc1F)NS(=O)(=O)c1ccc2c(c1)OCCO2
T. brucei: -1.334
Toxoplasma: 3.012

compound: Cn1cnc2c1C(COCC1CC1)CN(C(=O)c1cccs1)C2 (configuration not stated)
T. brucei: -12.85
Toxoplasma: -3.047

compound: CCCc1ccc(CN2CCC3(CCC(=O)N(CCO)C3)CC2)o1
T. brucei: -53.11
Toxoplasma: 27.17

compound: COc1ccc(C(=O)N2C[C@@H](C(=O)O)[C@H](c3ccccc3C)C2)c(O)c1
T. brucei: 18.52
Toxoplasma: 9.41

compound: CC(C)N(C)Cc1cn2c(n1)CN(Cc1ccsc1)CC2.O=C(O)C(F)(F)F.O=C(O)C(F)(F)F
T. brucei: -9.974
Toxoplasma: -9.732

compound: OCC(O)CSCc1cc(Cl)ccc1Cl (configuration not stated)
T. brucei: 3.432
Toxoplasma: 2.711

compound: CNC(=O)c1cc2c(nc1NCC1CC1)CCNCC2
T. brucei: -38.29
Toxoplasma: -0.5425

compound: Cc1ccnc(CC(C)N(C)c2cc(C3CCNCC3)nc(C)n2)c1 (configuration not stated)
T. brucei: 4.608
Toxoplasma: 2.844

compound: Cc1noc(-c2ccc(N3CCCC(C(=O)N4CCSCC4)C3)nc2)n1 (configuration not stated)
T. brucei: -0.3563
Toxoplasma: 0.1095

compound: Cc1cc(-n2cccn2)ccc1CN1CCOCC(CN(C)C)C1 (configuration not stated)
T. brucei: -10.31
Toxoplasma: -0.8347

compound: Nc1no[n+]([O-])c1C(=O)NCc1cccnc1
T. brucei: -39.24
Toxoplasma: 12.33

compound: CCc1n[nH]c(C2CN(C(=O)c3cnc(C)cn3)CCO2)n1 (configuration not stated)
Toxoplasma: -23.14

compound: O=C(O)C(F)(F)F.[H][C@@]12CN(CC3CCCC3)CCO[C@]1([H])CN(C(=O)C1CC(F)(F)C1)C2
T. brucei: -22.71
Toxoplasma: -1.416

The last 4 entries again:

compound,T. brucei,Toxoplasma
Cc1cc(-n2cccn2)ccc1CN1CCOCC(CN(C)C)C1 (configuration not stated),-10.31,-0.8347
Nc1no[n+]([O-])c1C(=O)NCc1cccnc1,-39.24,12.33
CCc1n[nH]c(C2CN(C(=O)c3cnc(C)cn3)CCO2)n1 (configuration not stated),-,-23.14
O=C(O)C(F)(F)F.[H][C@@]12CN(CC3CCCC3)CCO[C@]1([H])CN(C(=O)C1CC(F)(F)C1)C2,-22.71,-1.416

Measurements from “University of Dundee, Small-Polar-MMV Screening Library” (2021), ChEMBL document CHEMBL3988442.